PubChem BioAssay AID1259308 – NCATS – 2017
Here is one part, drawn at random, of about 59,000 reagents. About 1,510 of them (2.6%) count as active. 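Calls use total luciferase alone and ignore viability, so some active siRNAs may act by altering cell number.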 The numbers tell different reagents against one gene apart. Further read-outs or replicates are left out here.

- Assay: 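Genes whose loss raises luciferase production in HEK293 cells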 (primary screen)
- Cell system: human HEK293 embryonic kidney cells stably expressing firefly luciferase (HEK-CMV-Luc2-Hygro)
- Knock-down reagent: single siRNA against human genes, 0.8 pmol siRNA per well
- Time to read-out: 72 h
- Detection: 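Reporter luminescence and viable-cell signal on separate replicate plates, given as percent of non-targeting control and median/MAD z-scores, plus per-cell luciferase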
- Reading the numbers: total luciferase, z-score: higher = more reporter protein produced
- Active means: 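An siRNA counts as active if its total luciferase robust z-score exceeds 3; genes with two or more such siRNAs out of three were retested with fresh siRNAs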
- Meaning of the calls: active = raised luciferase; inactive = no rise

With knock-down of CSRP1 (cysteine and glycine rich protein 1) #1, the record shows total luciferase, z-score 0.298; inactive. CSRP1 (cysteine and glycine rich protein 1) #2 showed total luciferase, z-score 0.575; inactive. After knock-down of CSRP1 (cysteine and glycine rich protein 1) #3, the screen gave total luciferase, z-score -0.876; inactive. SIRPG (signal regulatory protein gamma) #1 gave total luciferase, z-score -0.0747; inactive. SIRPG (signal regulatory protein gamma) #2 scored total luciferase, z-score -0.0517; inactive. After knock-down of SIRPG (signal regulatory protein gamma) #3, the screen gave total luciferase, z-score 1.52; inactive.

Against ALPK1 (alpha kinase 1) #1, the values are total luciferase, z-score 1.35; inactive. After knock-down of ALPK1 (alpha kinase 1) #2, the screen gave total luciferase, z-score -0.621; inactive. ALPK1 (alpha kinase 1) #3 scored total luciferase, z-score 0.0922; inactive. CCL18 (C-C motif chemokine ligand 18) #1 scored total luciferase, z-score -0.576; inactive. Against CCL18 (C-C motif chemokine ligand 18) #2 the deposit lists total luciferase, z-score -0.494; inactive. Silencing of CCL18 (C-C motif chemokine ligand 18) #3 came out at: total luciferase, z-score 1.51; inactive.

After knock-down of XCL2 (X-C motif chemokine ligand 2) #1, the record shows total luciferase, z-score -0.438; inactive. XCL2 (X-C motif chemokine ligand 2) #2 showed total luciferase, z-score 0.377; inactive. XCL2 (X-C motif chemokine ligand 2) #3 gave total luciferase, z-score -1.98; inactive. Silencing of COL17A1 (collagen type XVII alpha 1 chain) #1 resulted in: total luciferase, z-score 0.428; inactive. After knock-down of COL17A1 (collagen type XVII alpha 1 chain) #2 the results were total luciferase, z-score -0.287; inactive. COL17A1 (collagen type XVII alpha 1 chain) #3 scored total luciferase, z-score 3.97; active.

KIDINS220 (kinase D interacting substrate 220) #1 scored total luciferase, z-score 0.0863; inactive. With knock-down of KIDINS220 (kinase D interacting substrate 220) #2 the results were total luciferase, z-score -0.1; inactive. With knock-down of KIDINS220 (kinase D interacting substrate 220) #3, the screen gave total luciferase, z-score 0.746; inactive. Against SHISA6 (shisa family member 6) #1, the entry reads total luciferase, z-score -1.66; inactive. Against SHISA6 (shisa family member 6) #2, the values are total luciferase, z-score 1.82; inactive. SHISA6 (shisa family member 6) #3 gave total luciferase, z-score -0.283; inactive.

With knock-down of CMTM3 (CKLF like MARVEL transmembrane domain containing 3) #1, the screen gave total luciferase, z-score 0.578; inactive. CMTM3 (CKLF like MARVEL transmembrane domain containing 3) #2 scored total luciferase, z-score 0.671; inactive. For CMTM3 (CKLF like MARVEL transmembrane domain containing 3) #3, the entry reads total luciferase, z-score 0.594; inactive.

Targets above whose target name begins with X or x:
XCL2 (X-C motif chemokine ligand 2) #1 | total luciferase, z-score: -0.438; Outcome: inactive
XCL2 (X-C motif chemokine ligand 2) #2 | total luciferase, z-score: 0.377; Outcome: inactive
XCL2 (X-C motif chemokine ligand 2) #3 | total luciferase, z-score: -1.98; Outcome: inactive

Additional results follow:
After knock-down of TRH (thyrotropin releasing hormone) #1, the record shows total luciferase, z-score -0.544; inactive. TRH (thyrotropin releasing hormone) #2 showed total luciferase, z-score -0.0131; inactive. With knock-down of TRH (thyrotropin releasing hormone) #3 the results were total luciferase, z-score 2.75; inactive. For SPIN1 (spindlin 1) #1 the deposit lists total luciferase, z-score 2.21; inactive. SPIN1 (spindlin 1) #2 showed total luciferase, z-score -0.963; inactive. Against SPIN1 (spindlin 1) #3 the deposit lists total luciferase, z-score 0.884; inactive.

DNAJC3 (DnaJ heat shock protein family (Hsp40) member C3) #1 gave total luciferase, z-score 0.0628; inactive. DNAJC3 (DnaJ heat shock protein family (Hsp40) member C3) #2 showed total luciferase, z-score -0.356; inactive. DNAJC3 (DnaJ heat shock protein family (Hsp40) member C3) #3 gave total luciferase, z-score 0.752; inactive. RPS12P9 (ribosomal protein S12 pseudogene 9) #1 scored total luciferase, z-score -0.306; inactive. Depletion of RPS12P9 (ribosomal protein S12 pseudogene 9) #2 gave: total luciferase, z-score 0.603; inactive. Against RPS12P9 (ribosomal protein S12 pseudogene 9) #3, the entry reads total luciferase, z-score 0.3; inactive.

For TIMP2 (TIMP metallopeptidase inhibitor 2) #1, the entry reads total luciferase, z-score 0.131; inactive. TIMP2 (TIMP metallopeptidase inhibitor 2) #2 scored total luciferase, z-score -0.982; inactive. TIMP2 (TIMP metallopeptidase inhibitor 2) #3 showed total luciferase, z-score -1.25; inactive.
